For assay [1], the target named is D288A mutant hCKα-R (human) (UniProt P35790). Put plainly: co-IP; lysates of transfected T7/Huh7 (or T7-control shRNA/Huh7) cells in Tris-HCl pH 7.4, 150 mM NaCl, 1% CHAPS; 1 μg antibody on protein A Mag Sepharose beads, lysate 4°C 6 h, 5 washes in PBS, immunoblot; cells treated with vehicle, PAO (5 μM), CK37 (100 μM) or PI4KIIIα siRNA in some panels.
Assay [2] has as its target hCKα-Flag (hCKα tagged with a Flag epitope at its C terminus) (human) (UniProt P35790). The assay is described as above.
For assay [3], the target named is human choline kinase-α (hCKα), endogenous (human (endogenous in Huh7)) (UniProt P35790). Described as above.
The target of another assay is wild-type hCKα-R (human) (UniProt P35790). The assay is described as above.
Assay [4] concerns the target HA-PI4KIIIα (phosphatidylinositol-4-kinase IIIα with an HA tag at its N terminus) (UniProt P42356). Described as above.
Assay [5] addresses HCV nonstructural protein 5A (NS5A) expressed from pTM-NS5A (hepatitis C virus (strain not stated)) (UniProt Q99IB8). The description is as above.
Assay [6] concerns the target phosphatidylinositol-4-kinase IIIα (PI4KIIIα), endogenous (human (endogenous in Huh7)) (UniProt P42356). As to the kind of experiment: co-IP; lysates of HCVcc-infected Huh7 cells; rabbit anti-PI4KIIIα or mouse anti-NS5A against isotype control IgG; immunoblot. (A western blot detects proteins with antibodies after separation by electrophoresis.)

Sequences of proteins named here, by UniProt entry; tags and fusion partners are left off. Residues count along the entry.
UniProt Q99IB8, residues 1977-2442: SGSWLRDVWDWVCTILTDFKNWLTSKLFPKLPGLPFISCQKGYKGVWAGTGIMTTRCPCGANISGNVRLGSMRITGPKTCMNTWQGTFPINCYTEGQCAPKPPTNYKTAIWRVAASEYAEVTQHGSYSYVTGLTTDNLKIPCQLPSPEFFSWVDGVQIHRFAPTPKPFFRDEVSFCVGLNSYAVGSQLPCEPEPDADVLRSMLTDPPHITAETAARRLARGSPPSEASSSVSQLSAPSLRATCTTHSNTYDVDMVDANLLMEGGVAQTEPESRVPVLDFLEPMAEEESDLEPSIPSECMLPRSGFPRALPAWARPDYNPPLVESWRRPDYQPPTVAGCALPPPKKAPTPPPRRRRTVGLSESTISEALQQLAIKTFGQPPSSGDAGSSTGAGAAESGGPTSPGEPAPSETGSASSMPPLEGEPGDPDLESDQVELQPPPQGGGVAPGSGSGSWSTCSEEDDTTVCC

Results are given in words; binding and its absence hold for the method and conditions named. In cells and extracts the contact can be indirect. Some binding calls cover weakened binding; strength is not graded here.

As to “HA-PI4KIIIα (phosphatidylinositol-4-kinase IIIα with an HA tag at its N terminus) (from UniProt P42356 1-2102) (enzyme)”, the binding result (in assay [1]; in assay [2]; in assay [3]; with wild-type hCKα-R (human)) was “binds” each time.
With “HCV nonstructural protein 5A (NS5A) expressed from pTM-NS3–5B (from UniProt Q99IB8 1977-2442)”, the binding entry in assay [2] and in assay [3] was “binds” in each case.
As for “HCV nonstructural protein 5A (NS5A) expressed from pTM-NS5A (from UniProt Q99IB8 1977-2442)”, the binding result in assay [2] is on record as “binds”.
In the case of “hCKα-Flag (hCKα tagged with a Flag epitope at its C terminus) (from UniProt P35790-2 1-439) (enzyme)”, the binding entry in assay [4] and in assay [5] was “binds” throughout.
For the substance “human choline kinase-α (hCKα), endogenous (from UniProt P35790 1-457) (enzyme)”, the binding entry in assay [6] and in assay [4] was “binds” throughout.

The record behind these values is publication PMC5533930.
